Measurements reported in article PMC12040169 (PLOS Biology, 2025).
This is one part of the list.

The compounds below were run on T1, CTL2-GFP (C. trachomatis L2/434/Bu, GFP-expressing). Details: bulk GFP, single well; 28.5 h, 10 µM; inhibitor.
T1 construct: L2/434/Bu, GFP-expressing
Parameters: species or system HeLa; Intracellular C. trachomatis growth in HeLa cells, bulk GFP fluorescence relative to DMSO
CSc1nnc2c(n1)[nH]c1ccccc12 [CBK025967] was tested, and the “% of control remaining” value was 89.5023%.
COc1ccc(Nc2nc(-c3cc(C(C)C)ccc3OC)cnc2N)c(C)c1 [CBK064098] was tested, and the “% of control remaining” value was 160.868%.
In the case of COc1cccc(C(=O)NCCC(=O)N2CCc3sccc3C2)c1 [CBK305376], the “% of control remaining” value is reported as 96.4328%.
In the case of OCc1ccccc1-c1nccnc1NCc1ccco1 [CBK037098], the “% of control remaining” value is reported as 134.593%.
With Cc1sc2c(C3CCN(C(=O)C4CC4)CC3)nc(C)n2c1C [CBK285298] the “% of control remaining” value was 124.641%.
In the case of O=C1CCc2c(Cc3c(Cl)cccc3Cl)c(O)nn21 [CBK083470], the “% of control remaining” value is reported as 110.72%.
With CCN(CC)CCNc1c(N)c(=O)oc2ccccc12 [CBK261469] the “% of control remaining” value was 100%.
COc1ccc(-c2c[nH]c([C@@H]3COCCN3Cc3ccc(C(=O)O)cc3)n2)cc1 [CBK289305] was tested, and the “% of control remaining” value was 154.063%.
With COc1ccccc1NC(=O)C(c1ccccc1)N1CCOCC1 (stereo not shown) [CBK269561] the “% of control remaining” value was 94.711%.
For Cn1c(=O)c(C(=O)Nc2ccc(OCc3ccccc3F)cc2)nc2ccccc21 [CBK285820], the “% of control remaining” value was 104.708%.
For O=C(Nc1ccc(=O)n2c1[C@@H]1C[C@@H](CN(C(=O)COc3ccccc3)C1)C2)c1cncnc1 [CBK288712], the “% of control remaining” value was 122.576%.
With O=C(O)CC(C(=O)OC1CCCCC1)N1CCOCC1 (stereo not shown) [CBK265970] the “% of control remaining” value was 190.557%.
O=C(NCCn1nc2c(cc1=O)CCCCC2)c1ccccc1 [CBK283278] was tested, and the “% of control remaining” value was 130.678%.
COc1ccc(-n2ncc3c2CC(C)(C)CC3NS(C)(=O)=O)cc1 (stereo not shown) [CBK306759] was tested, and the “% of control remaining” value was 128.682%.
For CCOc1ncccc1C(=O)OCc1cc2ccc(OC)cc2nc1Cl [CBK295289], the “% of control remaining” value was 150.767%.
With O=C(O)c1ccc(CN2C[C@H](O)C[C@H]2c2nc(-c3ccc(F)cc3)no2)cc1 [CBK288870] the “% of control remaining” value was 102.167%.
O=C(NC1CC1)N1CCN(CCCOc2ccc(F)cc2)CC1 [CBK025077C] was tested, and the “% of control remaining” value was 104.983%.
N#CCCCN1CCC(Oc2nccnc2OCc2cccc(Br)c2)CC1 [CBK153631] was tested, and the “% of control remaining” value was 126.674%.
For O=C(Nc1ccccc1C(=O)Nc1ccccc1C(=O)O)c1ccccc1 [CBK261551], the “% of control remaining” value was 81.9492%.
For Cn1nc(C(=O)NCCSc2n[nH]c(=O)[nH]c2=O)c2ccccc2c1=O [CBK297501], the “% of control remaining” value was 146.104%.
In the case of COc1ccc(C(C)C)cc1-c1cnc2nc(O)ccc2c1 [CBK081286], the “% of control remaining” value is reported as 76.0459%.
With CCCCn1cc(CN(C)C)c2c(C)ccnc21 [CBK008697] the “% of control remaining” value was 106.445%.
For O=C(NC1(c2ccccc2)CC1)c1cc(-n2cnnc2)ccc1Cl [CBK282777], the “% of control remaining” value was 113.745%.
O=[N+]([O-])c1ccc(N2CCNCC2)cc1NCc1ccccn1 [CBK268074] was tested, and the “% of control remaining” value was 110.085%.
With O=S(=O)(NC1CCN(Cc2ccccc2)CC1)c1cccc2nsnc12 [CBK062029] the “% of control remaining” value was 103.711%.
With Cc1[nH]nc(-c2ccc(O)c(C)c2O)c1Oc1ccc(F)cc1 [CBK264478] the “% of control remaining” value was 63.6267%.
In the case of CCN(CC)c1ccc(/C=N/NC(=O)CC2=NNC(=O)C2)cc1 [CBK020059], the “% of control remaining” value is reported as 155.57%.
With COc1ccc(-c2nc(-c3ccc(C#N)cc3)cnc2N)cc1OC [CBK063885] the “% of control remaining” value was 73.1914%.
COc1ccc(C2(C(=O)Nc3ccc(-c4ccccc4OC)cc3)CCOCC2)cc1 [CBK285710] was tested, and the “% of control remaining” value was 99.1978%.
For CC(C)[C@H]1CN(Cc2ccco2)CCN1C(=O)N1CCOCC1 [CBK284273], the “% of control remaining” value was 121.303%.
For CCOC(=O)COc1ccc(C#N)cc1OCC [CBK058937], the “% of control remaining” value was 126.023%.
With Cc1cc(NC(=O)c2ccc(OC(C)C)cc2)no1 [CBK287575] the “% of control remaining” value was 164.291%.
O=C(c1nc2ccccc2s1)C1CCN(C(=O)CCc2ccc(-c3ccccc3)o2)CC1 [CBK286170] was tested, and the “% of control remaining” value was 124.476%.
For CCN(CC)C(=O)Cn1nc(C)n2c(cc3sccc32)c1=O [CBK284044], the “% of control remaining” value was 145.487%.
For Cn1ccnc1C(NC(=O)C1C2CCCCC21)c1ccc(F)cc1 (stereo not shown) [CBK281441], the “% of control remaining” value was 111.35%.
With O=C(O)COc1cccc(NC(=O)c2ccccc2)c1 [CBK264602] the “% of control remaining” value was 100%.
Cc1cc(NC(=O)C(C)(C)C)nc2c1c(=O)oc1ccccc12 [CBK287443] was tested, and the “% of control remaining” value was 152.293%.
With COc1ccc(Cl)cc1C1(CNC(=O)C2CCC(N)C2)CCOCC1 (stereo not shown) [CBK305523] the “% of control remaining” value was 129.569%.
CC(C)(C)OC(=O)N1CCC(C(=O)NC[C@H](CC(=O)O)c2ccc(Cl)cc2)CC1 [CBK286691] was tested, and the “% of control remaining” value was 112.443%.
For CS(=O)(=O)c1ccccc1C(=O)n1ccn(-c2cccc(C(F)(F)F)c2)c1=O [CBK106584], the “% of control remaining” value was 125.902%.
For CC1CCCN(CCCNS(=O)(=O)c2ccc(N3CCCC3=O)cc2)C1 (stereo not shown) [CBK304213], the “% of control remaining” value was 111.498%.
For Nn1cnn2c(SCc3ccc(Cl)cc3)nnc12 [CBK263193], the “% of control remaining” value was 125.493%.
With O=C1NCC2(C/C=C/CCOc3ccccc31)CCN(C(=O)Cc1cccc(F)c1)CC2 [CBK292015] the “% of control remaining” value was 99.5725%.
In the case of Brc1ccc2c(c1)COC1(CN3CCC1CC3)O2 (stereo not shown) [CBK105268], the “% of control remaining” value is reported as 107.517%.
Cc1n[nH]c(C)c1-c1ccc2c(cnn2C)c1 [CBK307314] was tested, and the “% of control remaining” value was 143.943%.
CC(C)(C)CC(=O)NS(=O)(=O)c1cccc(-c2nnco2)c1 [CBK305258] was tested, and the “% of control remaining” value was 101.945%.
CN(C)C(=O)COc1cccc(Nc2nc(-c3cccc4ccccc34)cn3ccnc23)c1 [CBK037393] was tested, and the “% of control remaining” value was 164.327%.
For Cn1c(N2CCOCC2)nc2cc(C(=O)NCCn3cccn3)ccc21 [CBK307033], the “% of control remaining” value was 123.551%.
For CC(C)NC(=O)N1C[C@@H]2C[C@H](C1)c1ccc(-c3cccnc3)c(=O)n1C2 [CBK289184], the “% of control remaining” value was 157.765%.
In the case of O=C(Nc1ccncc1)c1cnn(-c2ccc(Cl)cc2)c1C(F)(F)F [CBK107441], the “% of control remaining” value is reported as 96.5508%.
For O=C(NCc1ccc(F)cc1)NC(=O)C1CCN(CCc2ccc(Br)cc2)CC1 [CBK034836], the “% of control remaining” value was 143.37%.
CCN(CC)c1ccc(CN(CCCN(C)C)C(=O)NCC2CCCCC2)cc1 [CBK159392] was tested, and the “% of control remaining” value was 89.1244%.
In the case of O=C(NC1CCCC1)c1ccc2c(c1)C(=O)N(CC1CCCO1)C2=O (stereo not shown) [CBK269777], the “% of control remaining” value is reported as 81.2335%.
CO[C@@]12CC[C@@H](O)C[C@@H]1N(C(=O)c1cccc3c1NCCC3)CC2 [CBK306741] was tested, and the “% of control remaining” value was 133.595%.
For Cc1ccc(C)c2[nH]c(=O)c(CN(CCN3CCOCC3)Cc3nnnn3Cc3ccccc3)cc12 [CBK108063], the “% of control remaining” value was 112.316%.
In the case of O=C(O)c1ccc(OCCN2CCOCC2)cc1 [CBK287038], the “% of control remaining” value is reported as 126.698%.
With CNC(=O)C1(Cc2ccccc2-c2cccs2)CCN(C(=O)CCc2ccccc2)CC1 [CBK285900] the “% of control remaining” value was 97.6282%.
For O=C(N[C@H]1C[C@H]2C(=O)Nc3ccccc3C(=O)N2C1)c1ccccc1 [CBK289354], the “% of control remaining” value was 99.581%.
COc1cc(C)cc(OC)c1-c1ncnc(C)c1C [CBK306762] was tested, and the “% of control remaining” value was 125.495%.
With COc1cccc2cc(C(=O)NCc3ccc4c(c3)OCO4)oc12 [CBK149797] the “% of control remaining” value was 87.7663%.
Cc1noc(C)c1C(=O)N1CCCCCC1c1ccn(C)n1 (stereo not shown) [CBK284917] was tested, and the “% of control remaining” value was 118.629%.
In the case of O=C(C(c1ccccc1)c1ccccc1)N1CCN(c2ncccn2)CC1 [CBK144504], the “% of control remaining” value is reported as 108.183%.
For CCOC(=O)c1c(CN(C)C)n(-c2ccccc2)c2cc(Br)c(O)cc12 [CBK261309C], the “% of control remaining” value was 115.015%.
NC(=O)[C@@H]1C[C@@H](O)[C@H](O)[C@H]2[C@@H]1N(c1ccc(Cl)cc1)C(=S)N2Cc1cccs1 [CBK288930] was tested, and the “% of control remaining” value was 136.37%.
With COCCNC(=O)c1cc(-c2cccc(N(C)C)c2)cnc1NCC1CC1 [CBK076288] the “% of control remaining” value was 100%.
For Cc1ccn2c(=O)cc(COC(=O)c3sc4nc(C)cc(C)c4c3N)nc2c1 [CBK297783], the “% of control remaining” value was 118.949%.
O=C(O)CCC(=O)c1c[nH]c2ccccc12 [CBK261275] was tested, and the “% of control remaining” value was 98.4146%.
For Cc1nn(C)cc1-c1cncn1C(C)Cc1c(C)nn(C)c1C (stereo not shown) [CBK281786], the “% of control remaining” value was 103.808%.
With CS(=O)(=O)N(CC(=O)N1CCN(Cc2ccc3c(c2)OCO3)CC1)c1cccc(C(F)(F)F)c1 [CBK265329] the “% of control remaining” value was 105.26%.
With c1cc(OCCN2CCCC2)c2cc[nH]c2c1 [CBK083478] the “% of control remaining” value was 128.466%.
CC(C)(C)NC(=O)NC1CCC2(CC1)CC(=O)c1ccccc1O2 (stereo not shown) [CBK283390] was tested, and the “% of control remaining” value was 68.2039%.
CC1Cc2ccccc2N1CCNC(=O)Cc1cn2ccsc2n1 (stereo not shown) [CBK306499] was tested, and the “% of control remaining” value was 126.756%.
For CN(C)C(=O)C1(Cc2ccccc2-c2cccnc2)CCN(Cc2ccccc2)CC1 [CBK285522], the “% of control remaining” value was 128.345%.
In the case of O=C(COc1ccc(Cl)cc1)NCCc1ccc(S(=O)(=O)NC(=O)NC2CCCCC2)cc1 [CBK013261], the “% of control remaining” value is reported as 137.994%.
For Cc1cc(C(=O)NCCn2nc(C)c(C)c2C)c2cccc(C)c2n1 [CBK281388], the “% of control remaining” value was 92.4803%.
COc1ccc(NC(=O)c2ccc(-c3ccc(Nc4ccc5c(c4)OCCO5)nc3)cc2)cc1 [CBK036815] was tested, and the “% of control remaining” value was 146.017%.
With Cc1csc(C(Cc2ccsc2)NC(=O)c2ccc(=O)[nH]c2)n1 (stereo not shown) [CBK285109] the “% of control remaining” value was 112.577%.
In the case of COc1ccnc(N2CCCN(CCN3CCOCC3)CC2)n1 [CBK084120], the “% of control remaining” value is reported as 85.5631%.
For COc1ccc(-c2cc3cccnc3n2CC(=O)NC(C)C)cc1 [CBK285380], the “% of control remaining” value was 138.18%.
